Measurements taken from patent US20150118736A1, “METHOD OF DEGRADING ORGANIC COMPOUNDS” (Agency for Science, Technology and Research, priority 2012, published 2015).

Legend:
[1] = system: Amorphotheca resinae ZN1; details: 25 °C, detoxification time 96 h, cited from earlier work
[2] = system: Enterobacter sp. FDS8; test: Detoxification of furfural and HMF in lignocellulose hydrolysate by Enterobacter sp. FDS8 cells (HPLC); details: for concentration in lignocellulose hydrolysate after detoxification: 3 h, 3.4 g/L cells, 30 °C
[3] = system: Ureibacillus thermosphaericus; details: Table 4; 50 °C, detoxification time 24 h; cited from earlier work
[4] = Table 7, consecutive detoxification step 1
[5] = Table 4, detoxification temperature 30 °C, detoxification time 3 h

Compound	degradation rate ([1]; Table 6)	concentration in lignocellulose hydrolysate after detoxification ([2]; Table 2, 200 mL hydrolysate)	concentration in lignocellulose hydrolysate after detoxification ([2]; Table 3, 20 ml hydrolysate)	concentration in lignocellulose hydrolysate after detoxification [2, 4]	Specific degradation rate [3]	degradation rate [3]	degradation rate ([1]; Table 4)	degradation rate ([2]; Control (without nitrogen resource))	degradation rate ([2]; NaNO3 5 g/L + (NH4)2SO4 5 g/L)	degradation rate ([2]; Potato extract 10 g/L)	Specific degradation rate [2, 5]	degradation rate [2, 5]	degradation rate ([2]; Yeast extract 10 g/L)	degradation rate ([2]; inoculum size of 4.6 g/L (FIG. 4))
CC(=O)O [Acetic acid, acetic acid]	20 mg/L/h	5.46 g/L	6.76 g/L	5.21 g/L	–	–	–	–	–	–	–	–	–	–
O=Cc1ccco1 [Furfural, 2-furaldehyde]	–	0 g/L	0 g/L	0 g/L	4 mg/g cell/h	15 mg/L/h	6 mg/L/h	313 ± 74 mg/L/h	160 ± 26 mg/L/h	360 ± 62 mg/L/h	130 mg/g cell/h	537 mg/L/h	370 ± 62 mg/L/h	537 mg/L/h

Like-named read-outs stand apart in the source and are kept apart here.
